{"source": "patent US20180273595A1", "note": "No constants are given. Whether binding was seen depends on the method and setting.", "data": [{"target": "GUS", "test": "reverse phage ELISA: plate coated with purified protein, phage supernatant, anti-M13-HRP, absorbance at 450 nm", "values": [{"binder": "LPPYLFTGGGS (peptide, not shown: large carriers)", "note": "[phage clone EIP1 (LPPYLFT displayed on phage)]", "binding": "no binding"}, {"binder": "LRFGTLPGGGS (peptide, not shown: large carriers)", "note": "[phage clone displaying LRFGTLP]", "binding": "no binding"}, {"binder": "LSFGSFPGGGS (peptide, not shown: large carriers)", "note": "[phage clone displaying LSFGSFP]", "binding": "no binding"}, {"binder": "LSFGTFPGGGS (peptide, not shown: large carriers)", "note": "[phage clone displaying LSFGTFP]", "binding": "no binding"}, {"binder": "FSASSPAGGGS (peptide, not shown: large carriers)", "note": "[phage clone displaying FSASSPA]", "binding": "no binding"}, {"binder": "FSFGSLPGGGS (peptide, not shown: large carriers)", "note": "[phage clone displaying FSFGSLP]", "binding": "no binding"}, {"binder": "LSFGSLPGGGS (peptide, not shown: large carriers)", "note": "[phage clone EIP2 (LSFGSLP displayed on phage)]", "binding": "no binding"}, {"binder": "LAFGSLPGGGS (peptide, not shown: large carriers)", "note": "[phage clone displaying LAFGSLP]", "binding": "no binding"}, {"binder": "FTFGSLPGGGS (peptide, not shown: large carriers)", "note": "[phage clone displaying FTFGSLP]", "binding": "no binding"}, {"binder": "LTFGSLPGGGS (peptide, not shown: large carriers)", "note": "[phage clone displaying LTFGSLP]", "binding": "no binding"}, {"binder": "MTFGTLPGGGS (peptide, not shown: large carriers)", "note": "[phage clone displaying MTFGTLP]", "binding": "no binding"}, {"binder": "YTFGTLPGGGS (peptide, not shown: large carriers)", "note": "[phage clone displaying YTFGTLP]", "binding": "no binding"}]}]}
